# According to PubChem BioAssay AID1347076 (National Center for Advancing Translational Sciences (NCATS), 2019):
# The whole screen tested about 400,000 compounds, of which about 13,000 (3.2%) were called active. This list was built around the results that the source calls inconclusive (neither active nor inactive); the mix of calls is not that of the screen. Calls come from the whole dose curve; as a rule, active = well fitted cell-killing curve with a large enough effect; inconclusive = small, poorly fitted or top-dose-only effect, or effect the other way; inactive = flat fitted curve, though single readings scatter. Potencies of inconclusive entries are doubtful fits and often do not repeat.
# Experiment: qHTS assay for MDR1-selective chemotherapeutics: Primary screen using the drug-selected MDR subline cells KB-V1; note: nearly all actives have a fitted effect of over 60% in size
# Settings: KB-V1 MDR cells viability, CellTiter-Glo, 72 h; activity change, negative = cytotoxicity: at 46.1 µM (top of the series)
# Summary of the method: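 Potencies derive from concentration-effect curves fitted to normalized luminescence (CellTiter-Glo) of KB-V1 cells treated for 72 h at 37 degrees C in phenol-red-free DMEM containing 10% FBS.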
# % is set by controls: 0 for no effect and ±100 for the full control effect; potency is the fitted concentration of half-maximal effect.
SMILES,"activity change, negative = cytotoxicity",Potency
O=C(CCc1c[nH]c2ccccc12)N[C@@H](Cc1c[nH]c2ccc(O)cc12)C(=O)O,inactive: 0%,–
CCOC(=O)c1ccc(NC(=O)NCCc2ccccc2OC)cc1,inactive: 3.7%,–
CC1=CC[C@@]23CCCN2C(=O)CCC[C@H]3C1,inactive: 0.0002%,–
CCOC(=O)C(CC(=O)O)N1CCCCC1 (configuration not stated),–,"inconclusive: 25.9 µM [rising, single point]"
O=C(CN1CCN(c2ccc(O)cc2)CC1)Nc1cc(S(=O)(=O)N2CCCCC2)ccc1Cl,–,active: 8.2 µM
COc1ccc(NC(=O)C(CC(C)C)NC(=O)C2CCC(C)CC2)cc1 (configuration not stated),–,"inconclusive: 5.8 µM [cytotoxic, partial curve]"
O=S1(=O)N=C(Oc2ccccc2C(F)(F)F)c2ccccc21,–,"inconclusive: 9.2 µM [rising, partial curve]"
Cc1ccc(CC(=O)Nc2nc3c(s2)CCCC3)cc1,–,"inconclusive: 13 µM [cytotoxic, single point]"
Cc1oc(-c2ccccc2F)nc1CN1CCC(C(=O)NCCC2=CCCCC2)CC1,–,active: 8.2 µM
CCCCN(C=O)c1c(CC)nc2c(OCC(=O)c3ccc(F)cc3)cccn12,inactive: -2.42%,–
CC(C)c1ccc(NC(=O)CSc2ncc3c(n2)-c2ccccc2N(C)S3(=O)=O)cc1,inactive: 2.23%,–
CCOC(=O)C1(Cc2cccc(OC)c2)CCN(Cc2ccccc2)CC1,–,"inconclusive: 5.17 µM [cytotoxic, partial curve]"
Cc1ccc(N2C(=O)C3C4C=CC(CNC(=S)Nc5ccc(Cl)cc5)(O4)C3C2=O)cc1 (configuration not stated),–,active: 8.2 µM
Cc1ccc(Cl)c2sc(N3CCN(C(=O)C4CC4)CC3)nc12,–,"inconclusive: 11.6 µM [cytotoxic, partial curve]"
CCCCCCN1CCN(C2CN(Cc3cn(Cc4ccc(Cl)cc4)nn3)S(=O)(=O)C2)CC1 (configuration not stated),inactive: 0%,–
COC(=O)c1c(NC(=O)c2ccc(S(=O)(=O)N3CCCC(C)C3)cc2)sc2c1CCN(C(C)C)C2 (configuration not stated),inactive: 0%,–
CCOC(=O)c1sc(NC(=O)CSc2n[nH]c(CC(C)C)n2)nc1C,–,"inconclusive: 18.4 µM [cytotoxic, single point]"
O=C(Cn1ncc(Cl)c(Cl)c1=O)NC1CCCCC1,inactive: 0.579%,–
C=CCn1c(SC)nnc1-c1cccc([N+](=O)[O-])c1,–,"inconclusive: 20.6 µM [cytotoxic, partial curve, poor fit]"
CC(C)N(C(=O)COC(=O)c1cccc(C(=O)OCC(=O)N(C(C)C)C(C)C)n1)C(C)C,–,"inconclusive: 5.8 µM [rising, full curve]"
CCNS(=O)(=O)c1ccc(NC(=O)Nc2cc(C)ccc2OC)cc1,–,"inconclusive: 4.11 µM [cytotoxic, full curve]"
Cc1cccc(Nc2nc(-c3ccccc3)c(C(=O)Nc3cccnc3)s2)c1,–,"inconclusive: 10.3 µM [cytotoxic, partial curve]"
S=C(Nc1ccccc1)N1CCn2cccc2C1c1cccnc1 (configuration not stated),–,active: 16.4 µM
CSc1ccc(CNCc2c(C(=O)O)c(C)n(Cc3ccc(F)cc3Cl)c2C)cc1,inactive: 28.1%,–

SMILES,"activity change, negative = cytotoxicity",Potency
CCOc1cc(NC(=S)NCC2CCCO2)c(OCC)cc1NC(=O)c1ccccc1F (configuration not stated),–,"inconclusive: 11.6 µM [cytotoxic, partial curve, poor fit]"
CC1=C/C(=C\c2ccc3c(c2)OCO3)C(=O)S1,–,"inconclusive: 16.4 µM [rising, single point]"
CCn1nc(C)c(NC(=O)c2cnn3c(C(F)F)cc(-c4ccccc4)nc23)c1C,inactive: -21.1%,–
Cc1ccc(-c2cc(C(F)F)n3ncc(C(=O)NN4CCCCC4)c3n2)cc1,–,"inconclusive: 7.31 µM [cytotoxic, partial curve, poor fit]"
Cc1cccc(N(CC(=O)N/N=C/c2cc([N+](=O)[O-])ccc2Cl)S(C)(=O)=O)c1C,–,"inconclusive: 14.6 µM [cytotoxic, single point]"
COc1ccc(-c2cccc(-c3cc(=O)oc4cc(OC)cc(OC)c34)c2)cc1,–,active: 1.16 µM
O=c1c(O)c(-c2cccs2)oc2ccc(Cl)cc12,–,"inconclusive: 29.1 µM [cytotoxic, single point]"
C=CCN1C(=O)C2(NNc3ccccc3O2)c2ccccc21 (configuration not stated),–,"inconclusive: 20.6 µM [cytotoxic, single point]"
CC(=O)c1cccc(CN2CCC(n3nccc3NC(=O)CCCc3ccccc3)CC2)c1,–,"inconclusive: 13 µM [cytotoxic, partial curve]"
COc1cccc(NC(=O)COC(=O)c2c3c(nc4ccccc24)CCC(C)C3)c1 (configuration not stated),–,active: 2.91 µM
CC(=O)c1cccc(NC(=O)CN2C(=O)NC(C)(c3ccc4c(c3)OCCCO4)C2=O)c1 (configuration not stated),inactive: -0.974%,–
CCOc1ccc2cc(C3CC(c4ccco4)=NN3S(=O)(=O)c3ccccc3)c(Cl)nc2c1 (configuration not stated),–,active: 5.8 µM
CN1CCC2(CC1)N=C(c1ccc(F)cc1)C(=S)N2C(=O)c1ccccc1,–,"inconclusive: 18.4 µM [cytotoxic, single point]"
CCOC(=O)c1ccc(N2CCN(C(=O)c3ccccc3)CC2)c(NC(=O)c2ccco2)c1,inactive: 10.6%,–
CCNC(=O)C1CCCN(C(=O)c2cnc3ccccc3n2)CC1 (configuration not stated),inactive: -3.21%,–
Cc1ccc(-c2nc(NCc3ccco3)n(C(=O)c3ccco3)n2)cc1,–,"inconclusive: 20.6 µM [rising, partial curve]"
COC(=O)c1ccccc1NC(=O)c1nc2nc(C)cc(C)n2n1,–,"inconclusive: 13 µM [cytotoxic, partial curve, poor fit]"
O=C(Nc1ccncc1)c1cc2ccccc2cc1O,–,"inconclusive: 29.1 µM [cytotoxic, single point]"
CCc1ccc(N2CC(C(=O)OCC(=O)Nc3ccc(C(C)=O)cc3)CC2=O)cc1 (configuration not stated),–,"inconclusive: 23.1 µM [rising, single point]"
CCCNC(=O)c1ccccc1NC(=O)COc1ccc(OC)cc1,–,active: 4.61 µM
Cc1ccccc1OCC(=O)Nc1sc2c(c1C#N)CC(C)(C)NC2(C)C,inactive: -12.6%,–
O=C(Cn1cc(S(=O)(=O)Cc2ccc(F)cc2)c2ccccc21)NCCc1ccccc1,inactive: -29.7%,–
COc1cc(CO)cc(Br)c1OCC(=O)Nc1cccc2ccccc12,inconclusive: -13.3%,–
CCc1ccc(-n2nc3cc(C)c(NC(=O)c4cc(Cl)ccc4OC)cc3n2)cc1,inactive: 4.1%,–

# Three compounds drawn at random from the list so far:
SMILES,"activity change, negative = cytotoxicity",Potency
CCn1nc(C)c(NC(=O)c2cnn3c(C(F)F)cc(-c4ccccc4)nc23)c1C,inactive: -21.1%,–
COc1cc(CO)cc(Br)c1OCC(=O)Nc1cccc2ccccc12,inconclusive: -13.3%,–
CCOc1cc(NC(=S)NCC2CCCO2)c(OCC)cc1NC(=O)c1ccccc1F (configuration not stated),–,"inconclusive: 11.6 µM [cytotoxic, partial curve, poor fit]"

# Following part

SMILES,"activity change, negative = cytotoxicity",Potency
CC(C)(C)C(=O)NC(C(N)=O)=C(Cl)Cl,–,"inconclusive: 32.6 µM [rising, single point]"
CCCS(=O)(=O)Nc1c(OC)ccc2c1c(C(=O)OCC)c(C)n2C,–,"inconclusive: 9.2 µM [cytotoxic, partial curve, poor fit]"
O=C(NCc1ccccc1)C(c1ccc(F)cc1)N(Cc1ccco1)C(=O)c1ccccn1 (configuration not stated),–,"inconclusive: 6.51 µM [cytotoxic, full curve, poor fit]"
CCOC(=O)N1CCN(C(C(=O)NC2CCCC2)c2ccco2)CC1 (configuration not stated),–,"inconclusive: 13 µM [cytotoxic, partial curve, poor fit]"
O=C(c1cccs1)N1C[C@H](O)[C@@H](n2cc(C3CC3)nn2)C[C@@H]1c1ccccc1,inactive: -5.26%,–
CCCCc1c(-c2ccc(Cl)cc2)ncn1CCc1ccccc1OC,–,active: 13 µM
C=CCn1c(SCC(=O)c2cc(C)n(Cc3cccs3)c2C)nnc1-c1ccncc1,–,"inconclusive: 35.5 µM [cytotoxic, single point]"
CCCCn1c(N)c(N(CC)C(=O)C2COc3ccccc3O2)c(=O)[nH]c1=O (configuration not stated),inactive: -2.28%,–
COc1ccc(/C=N/N2CCN(c3ccccc3)CC2)cc1Br,–,"inconclusive: 18.4 µM [rising, single point]"
O=C(COC(=O)CCCOc1ccccc1)NNC(=O)c1ccc([N+](=O)[O-])cc1,–,"inconclusive: 29.1 µM [cytotoxic, single point]"
COc1ccc(NC(=O)c2cccc(Oc3ccc([N+](=O)[O-])cc3Cl)c2)cc1,–,"inconclusive: 20.6 µM [cytotoxic, single point]"
COc1ccc(OCCn2c(C3CC(=O)N(c4ccc(F)cc4)C3)nc3ccccc32)cc1 (configuration not stated),inactive: 12.4%,–
Cc1ccnc(Nc2nc(-c3ccccc3)cs2)c1,inactive: -25.2%,–
Cc1ccc(S(=O)(=O)c2nc(-c3ccccc3Cl)oc2N(C)C)cc1,–,active: 10.3 µM
CCOC(=O)N1CCN(C(=O)C2CCCN(c3ncnc4c3nc3n4CCCCC3)C2)CC1 (configuration not stated),–,"inconclusive: 16.4 µM [cytotoxic, single point]"
O=C(COc1ccccc1)N1c2ccccc2Sc2ccccc21,–,"inconclusive: 25.9 µM [cytotoxic, single point]"
COc1ccc(C2Nc3ccccc3C(=O)N2Cc2ccccc2)cc1COc1ccccc1F (configuration not stated),inactive: 18.1%,–
Cc1onc(-c2c(F)cccc2Cl)c1C(=O)OCC(=O)NC(=O)NCC(C)C,–,"inconclusive: 11.6 µM [cytotoxic, partial curve]"
Cc1ccc(NC(=O)c2c(N3CCCC3=O)c3cc(C)ccc3n2C)c(C)c1,inactive: -26.7%,–
COc1ccc(N2CCCn3c2nc2c3c(=O)n(Cc3ccccc3)c(=O)n2C)c(OC)c1,–,"inconclusive: 5.8 µM [cytotoxic, partial curve, poor fit]"
Cc1ccc(S(=O)(=O)N(C)C)cc1NC(=S)N1CCN(Cc2ccc3c(c2)OCO3)CC1,–,"inconclusive: 29.1 µM [cytotoxic, single point]"
ON=C1c2ccccc2-c2ccc(F)cc21,–,"inconclusive: 18.4 µM [cytotoxic, single point]"
O=C(COc1ccc(F)cc1Cl)Nc1ccccc1C(=O)N1CCCCC1,–,"inconclusive: 7.31 µM [cytotoxic, partial curve, poor fit]"
CCCCOC(=O)c1ccc(NS(=O)(=O)c2c(C)nc3scc(C)n3c2=O)cc1,–,active: 8.2 µM
